Data taken from the supplement of paper PMC6411743.
± gives the standard deviation of the averaged measurements. Some of the results follow.

Amino acid sequences for entries named in this document (tags omitted). A change or cut given only in a name is not applied to a line headed by its entry.
UniProt P29144: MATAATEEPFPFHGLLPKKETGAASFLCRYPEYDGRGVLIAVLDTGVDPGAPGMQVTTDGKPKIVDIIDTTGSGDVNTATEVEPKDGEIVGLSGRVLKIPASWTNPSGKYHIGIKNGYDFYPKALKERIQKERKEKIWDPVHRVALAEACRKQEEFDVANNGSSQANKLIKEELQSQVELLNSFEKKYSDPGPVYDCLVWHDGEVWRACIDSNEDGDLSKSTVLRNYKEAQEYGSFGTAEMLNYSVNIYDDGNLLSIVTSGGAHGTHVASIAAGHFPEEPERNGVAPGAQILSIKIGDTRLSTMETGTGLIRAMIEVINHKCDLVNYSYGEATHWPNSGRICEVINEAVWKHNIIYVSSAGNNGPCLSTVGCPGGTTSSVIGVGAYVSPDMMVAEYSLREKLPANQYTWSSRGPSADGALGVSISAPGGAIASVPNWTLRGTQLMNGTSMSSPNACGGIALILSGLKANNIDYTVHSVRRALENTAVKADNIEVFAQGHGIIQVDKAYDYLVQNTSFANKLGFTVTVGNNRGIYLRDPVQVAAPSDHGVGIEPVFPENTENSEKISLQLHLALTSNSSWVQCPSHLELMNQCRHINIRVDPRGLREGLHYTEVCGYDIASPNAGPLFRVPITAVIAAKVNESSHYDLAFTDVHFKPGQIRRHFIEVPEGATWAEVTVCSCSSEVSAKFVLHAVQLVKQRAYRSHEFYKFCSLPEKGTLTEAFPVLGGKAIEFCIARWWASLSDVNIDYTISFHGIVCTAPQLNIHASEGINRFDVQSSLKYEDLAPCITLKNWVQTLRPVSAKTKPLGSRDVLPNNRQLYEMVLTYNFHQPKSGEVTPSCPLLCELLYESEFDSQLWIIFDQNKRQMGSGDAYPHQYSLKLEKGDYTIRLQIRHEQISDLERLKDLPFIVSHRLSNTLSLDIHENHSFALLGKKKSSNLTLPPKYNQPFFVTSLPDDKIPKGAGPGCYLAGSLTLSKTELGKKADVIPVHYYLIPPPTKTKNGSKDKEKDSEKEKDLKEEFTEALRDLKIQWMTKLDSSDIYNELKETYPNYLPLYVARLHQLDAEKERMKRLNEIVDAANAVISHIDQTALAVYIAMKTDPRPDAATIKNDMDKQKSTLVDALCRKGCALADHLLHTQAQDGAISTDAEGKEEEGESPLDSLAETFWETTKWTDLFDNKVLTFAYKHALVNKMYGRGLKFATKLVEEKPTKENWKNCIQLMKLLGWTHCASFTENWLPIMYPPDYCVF
UniProt P35251: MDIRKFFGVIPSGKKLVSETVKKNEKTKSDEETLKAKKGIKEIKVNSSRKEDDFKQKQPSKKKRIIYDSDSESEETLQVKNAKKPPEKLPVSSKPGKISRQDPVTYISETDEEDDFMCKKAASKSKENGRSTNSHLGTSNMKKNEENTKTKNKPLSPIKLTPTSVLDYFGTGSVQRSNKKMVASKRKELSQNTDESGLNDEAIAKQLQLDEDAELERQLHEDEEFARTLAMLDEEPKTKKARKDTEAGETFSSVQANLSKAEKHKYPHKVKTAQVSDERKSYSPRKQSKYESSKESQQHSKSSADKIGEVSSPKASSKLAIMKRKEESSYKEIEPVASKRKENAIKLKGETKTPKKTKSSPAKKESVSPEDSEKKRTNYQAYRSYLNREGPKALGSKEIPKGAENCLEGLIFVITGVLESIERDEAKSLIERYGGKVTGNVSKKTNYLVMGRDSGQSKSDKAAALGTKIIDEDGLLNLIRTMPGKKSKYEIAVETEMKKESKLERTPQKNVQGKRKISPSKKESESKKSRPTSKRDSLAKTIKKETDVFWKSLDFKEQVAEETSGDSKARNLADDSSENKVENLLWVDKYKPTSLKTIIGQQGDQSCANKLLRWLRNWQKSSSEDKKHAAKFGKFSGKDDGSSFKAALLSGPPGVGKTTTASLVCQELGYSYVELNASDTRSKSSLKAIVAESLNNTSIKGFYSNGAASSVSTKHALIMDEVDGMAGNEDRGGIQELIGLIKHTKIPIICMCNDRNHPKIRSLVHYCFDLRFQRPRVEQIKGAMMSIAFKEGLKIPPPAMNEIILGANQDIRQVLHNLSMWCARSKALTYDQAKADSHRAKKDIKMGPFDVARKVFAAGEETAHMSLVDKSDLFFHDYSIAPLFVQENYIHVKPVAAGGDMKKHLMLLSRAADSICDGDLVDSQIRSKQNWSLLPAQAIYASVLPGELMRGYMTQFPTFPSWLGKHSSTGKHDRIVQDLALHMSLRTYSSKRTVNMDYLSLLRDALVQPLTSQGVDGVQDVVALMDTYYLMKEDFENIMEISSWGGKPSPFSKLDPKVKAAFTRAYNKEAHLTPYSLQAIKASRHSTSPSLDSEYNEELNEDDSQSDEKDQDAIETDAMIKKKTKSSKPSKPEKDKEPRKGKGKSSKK
UniProt P48553, whole entry: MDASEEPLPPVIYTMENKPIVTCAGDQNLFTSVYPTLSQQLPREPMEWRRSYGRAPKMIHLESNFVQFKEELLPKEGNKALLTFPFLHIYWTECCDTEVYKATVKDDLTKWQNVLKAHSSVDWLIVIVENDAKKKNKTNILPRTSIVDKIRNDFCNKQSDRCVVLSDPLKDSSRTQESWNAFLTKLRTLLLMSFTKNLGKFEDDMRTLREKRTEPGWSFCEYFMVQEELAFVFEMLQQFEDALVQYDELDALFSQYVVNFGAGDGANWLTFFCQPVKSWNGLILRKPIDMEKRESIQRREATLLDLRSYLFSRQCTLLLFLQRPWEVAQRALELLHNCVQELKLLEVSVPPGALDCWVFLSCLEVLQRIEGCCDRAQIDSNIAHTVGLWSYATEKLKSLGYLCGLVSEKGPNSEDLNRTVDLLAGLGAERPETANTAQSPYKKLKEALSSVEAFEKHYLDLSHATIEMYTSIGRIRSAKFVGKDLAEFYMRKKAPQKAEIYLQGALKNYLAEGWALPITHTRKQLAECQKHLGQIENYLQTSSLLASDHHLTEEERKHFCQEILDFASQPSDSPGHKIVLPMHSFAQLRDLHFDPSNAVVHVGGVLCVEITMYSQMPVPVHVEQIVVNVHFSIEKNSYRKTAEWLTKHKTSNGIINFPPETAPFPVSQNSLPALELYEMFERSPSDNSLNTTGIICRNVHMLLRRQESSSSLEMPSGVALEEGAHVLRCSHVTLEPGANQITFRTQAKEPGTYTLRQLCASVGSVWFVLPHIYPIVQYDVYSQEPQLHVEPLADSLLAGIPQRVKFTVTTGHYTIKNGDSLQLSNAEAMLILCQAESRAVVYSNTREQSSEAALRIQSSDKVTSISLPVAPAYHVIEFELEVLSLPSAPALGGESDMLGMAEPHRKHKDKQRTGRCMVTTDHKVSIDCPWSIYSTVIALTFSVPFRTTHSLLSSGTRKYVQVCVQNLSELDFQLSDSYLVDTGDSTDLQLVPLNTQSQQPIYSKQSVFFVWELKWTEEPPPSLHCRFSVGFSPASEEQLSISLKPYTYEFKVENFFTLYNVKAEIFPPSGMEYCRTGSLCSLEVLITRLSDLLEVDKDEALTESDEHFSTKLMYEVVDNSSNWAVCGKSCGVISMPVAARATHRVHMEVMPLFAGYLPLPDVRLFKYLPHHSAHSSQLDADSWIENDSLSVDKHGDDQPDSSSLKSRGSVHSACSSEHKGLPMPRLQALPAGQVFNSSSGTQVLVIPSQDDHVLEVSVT
UniProt P42695: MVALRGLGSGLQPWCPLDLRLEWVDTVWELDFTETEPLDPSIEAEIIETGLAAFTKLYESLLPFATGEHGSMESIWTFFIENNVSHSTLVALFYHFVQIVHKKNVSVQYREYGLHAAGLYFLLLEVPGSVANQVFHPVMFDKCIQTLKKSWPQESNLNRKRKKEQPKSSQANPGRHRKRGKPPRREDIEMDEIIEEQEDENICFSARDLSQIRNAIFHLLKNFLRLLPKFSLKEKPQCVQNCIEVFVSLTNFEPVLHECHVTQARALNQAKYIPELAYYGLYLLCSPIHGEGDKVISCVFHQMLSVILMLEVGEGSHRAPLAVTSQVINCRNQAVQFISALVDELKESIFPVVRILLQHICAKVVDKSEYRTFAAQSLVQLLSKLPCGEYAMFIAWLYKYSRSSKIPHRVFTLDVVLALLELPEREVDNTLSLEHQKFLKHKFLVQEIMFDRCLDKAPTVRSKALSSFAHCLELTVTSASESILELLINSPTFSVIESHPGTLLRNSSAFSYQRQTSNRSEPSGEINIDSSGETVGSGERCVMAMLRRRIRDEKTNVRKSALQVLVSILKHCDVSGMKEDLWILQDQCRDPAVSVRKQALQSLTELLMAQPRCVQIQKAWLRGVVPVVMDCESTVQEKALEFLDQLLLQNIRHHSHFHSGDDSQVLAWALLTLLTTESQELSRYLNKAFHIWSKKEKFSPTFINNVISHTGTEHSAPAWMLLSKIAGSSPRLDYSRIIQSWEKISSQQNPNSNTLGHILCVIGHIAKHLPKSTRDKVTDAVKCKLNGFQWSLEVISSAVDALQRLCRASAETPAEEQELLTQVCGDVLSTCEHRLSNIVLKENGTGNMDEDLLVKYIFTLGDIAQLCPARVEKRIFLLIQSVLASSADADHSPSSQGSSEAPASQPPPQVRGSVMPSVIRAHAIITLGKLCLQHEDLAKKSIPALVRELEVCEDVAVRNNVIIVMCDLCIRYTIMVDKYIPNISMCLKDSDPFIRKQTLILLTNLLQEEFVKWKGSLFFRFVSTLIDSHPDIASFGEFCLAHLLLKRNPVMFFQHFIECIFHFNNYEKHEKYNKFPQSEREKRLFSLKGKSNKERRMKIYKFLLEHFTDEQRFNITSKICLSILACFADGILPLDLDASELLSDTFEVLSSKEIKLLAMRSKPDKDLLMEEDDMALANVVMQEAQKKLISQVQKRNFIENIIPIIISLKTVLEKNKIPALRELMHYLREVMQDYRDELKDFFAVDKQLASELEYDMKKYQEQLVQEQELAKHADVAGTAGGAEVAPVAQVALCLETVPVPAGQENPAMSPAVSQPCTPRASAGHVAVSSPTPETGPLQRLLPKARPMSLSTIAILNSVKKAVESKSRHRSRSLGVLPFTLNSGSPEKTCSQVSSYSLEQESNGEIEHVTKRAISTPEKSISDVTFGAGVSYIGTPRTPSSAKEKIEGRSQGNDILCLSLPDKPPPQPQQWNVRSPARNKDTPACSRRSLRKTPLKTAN
UniProt P28749: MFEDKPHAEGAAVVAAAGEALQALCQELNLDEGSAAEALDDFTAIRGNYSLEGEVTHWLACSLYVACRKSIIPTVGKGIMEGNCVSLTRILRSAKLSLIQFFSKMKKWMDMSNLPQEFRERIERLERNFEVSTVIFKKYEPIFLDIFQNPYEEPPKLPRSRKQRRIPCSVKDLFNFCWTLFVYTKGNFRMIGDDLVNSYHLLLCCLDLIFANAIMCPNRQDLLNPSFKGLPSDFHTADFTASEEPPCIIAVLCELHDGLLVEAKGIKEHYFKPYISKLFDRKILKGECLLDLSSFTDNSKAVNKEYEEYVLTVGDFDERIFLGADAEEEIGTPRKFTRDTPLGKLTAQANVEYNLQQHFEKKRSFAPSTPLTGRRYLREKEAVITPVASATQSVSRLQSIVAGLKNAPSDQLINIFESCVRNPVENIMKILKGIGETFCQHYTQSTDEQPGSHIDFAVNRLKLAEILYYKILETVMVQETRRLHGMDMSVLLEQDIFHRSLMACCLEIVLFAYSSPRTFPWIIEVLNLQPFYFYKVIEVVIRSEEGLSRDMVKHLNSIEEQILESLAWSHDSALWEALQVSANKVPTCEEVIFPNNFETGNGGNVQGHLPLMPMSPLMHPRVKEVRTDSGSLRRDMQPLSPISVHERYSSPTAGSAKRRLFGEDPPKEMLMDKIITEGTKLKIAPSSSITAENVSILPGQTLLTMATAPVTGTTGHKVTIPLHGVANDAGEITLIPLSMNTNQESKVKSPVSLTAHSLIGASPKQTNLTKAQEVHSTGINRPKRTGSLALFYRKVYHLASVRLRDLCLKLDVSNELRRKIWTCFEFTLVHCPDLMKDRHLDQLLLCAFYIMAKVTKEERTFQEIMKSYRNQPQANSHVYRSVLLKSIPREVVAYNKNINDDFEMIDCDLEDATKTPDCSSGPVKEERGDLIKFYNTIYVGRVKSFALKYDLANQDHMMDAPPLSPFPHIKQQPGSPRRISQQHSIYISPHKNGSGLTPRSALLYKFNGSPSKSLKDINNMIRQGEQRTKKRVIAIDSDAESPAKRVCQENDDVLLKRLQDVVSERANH
UniProt P29218: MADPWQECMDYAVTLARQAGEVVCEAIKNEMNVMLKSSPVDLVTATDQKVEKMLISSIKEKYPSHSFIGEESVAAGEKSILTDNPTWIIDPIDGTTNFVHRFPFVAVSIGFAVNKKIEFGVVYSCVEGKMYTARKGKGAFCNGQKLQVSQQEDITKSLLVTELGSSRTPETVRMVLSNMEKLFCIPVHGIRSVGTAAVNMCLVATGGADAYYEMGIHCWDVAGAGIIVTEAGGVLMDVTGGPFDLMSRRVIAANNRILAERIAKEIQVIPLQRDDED

Compound: Nc1nc2c(ncn2[C@@H]2O[C@H](COP(=O)(O)OP(=O)(O)OP(=O)(O)O)[C@@H](O)[C@H]2O)c(=O)[nH]1 [guanosine triphosphate]
Test: NP40-soluble protein abundance relative to vehicle (solubility fold change) (ratio); higher = more soluble protein in presence of GTP
Summary of the method: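 Across three independent experiments, values are fold changes against the detergent-processed vehicle for each replicate, based on vsn-normalised intensities. The samples were Jurkat crude lysate treated with eight concentrations (0.1 to 10 mM) for 10 min at room temperature and then 3 min at 37 °C. Lysate was solubilised with 0.8% NP40 and benzonase, ultracentrifuged, and the supernatant analysed by TMT-labelled LC-MS/MS.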

Target | NP40-soluble protein abundance (concentration: 0.1mM) | NP40-soluble protein abundance (concentration: 0.5mM) | NP40-soluble protein abundance (concentration: 1mM) | NP40-soluble protein abundance (concentration: 2mM) | NP40-soluble protein abundance (concentration: 4mM) | NP40-soluble protein abundance (concentration: 6mM) | NP40-soluble protein abundance (concentration: 8mM) | NP40-soluble protein abundance (concentration: 10mM)
LMAN1 (UniProt P49257) | 1.015 ± 0.0096 | 1.02 ± 0.025 | 0.965 ± 0.028 | 0.941 ± 0.024 | 0.925 ± 0.035 | 0.928 ± 0.028 | 0.927 ± 0.025 | 0.891 ± 0.045
GMPS (UniProt P49915) | 0.9722 ± 0.0091 | 0.9922 ± 0.0088 | 0.9203 ± 0.0078 | 0.91 ± 0.038 | 0.882 ± 0.026 | 0.899 ± 0.028 | 0.869 ± 0.036 | 0.867 ± 0.067
UniProt P32321 and related entries | 0.901 ± 0.02 | 0.941 ± 0.064 | 0.899 ± 0.033 | 0.897 ± 0.024 | 0.879 ± 0.012 | 0.908 ± 0.048 | 0.869 ± 0.033 | 0.885 ± 0.056
UniProt P29144 and related entries | 1.01 ± 0.024 | 1.06 ± 0.062 | 1.02 ± 0.081 | 1.05 ± 0.098 | 1.06 ± 0.1 | 1.05 ± 0.11 | 1.04 ± 0.11 | 1.02 ± 0.11
UniProt P35251 and related entries | 1.04 ± 0.019 | 1.11 ± 0.054 | 1.18 ± 0.049 | 1.24 ± 0.071 | 1.36 ± 0.1 | 1.4 ± 0.087 | 1.45 ± 0.14 | 1.46 ± 0.12
PRKAR2B (UniProt P31323) | 0.914 ± 0.015 | 0.946 ± 0.045 | 0.857 ± 0.069 | 0.884 ± 0.03 | 0.913 ± 0.013 | 0.95 ± 0.079 | 0.943 ± 0.044 | 0.983 ± 0.024
TRAPPC10 (UniProt P48553) | 1.381 ± 0.012 | 1.16 ± 0.013 | 1.32 ± 0.0021 | 1.24 ± 0.08 | 1.23 ± 0.072 | 1.206 ± 0.0061 | 1.221 ± 0.0049 | 1.24 ± 0.098
UniProt P45880 and related entries | 0.898 ± 0.021 | 0.964 ± 0.038 | 0.878 ± 0.029 | 0.895 ± 0.031 | 0.86 ± 0.025 | 0.892 ± 0.025 | 0.874 ± 0.057 | 0.867 ± 0.051
CRKL (UniProt P46109) | 0.973 ± 0.029 | 0.958 ± 0.058 | 0.967 ± 0.092 | 0.932 ± 0.073 | 0.921 ± 0.076 | 0.906 ± 0.089 | 0.923 ± 0.093 | 0.876 ± 0.086
NCAPD3 (UniProt P42695) | 0.988 ± 0.028 | 1.05 ± 0.038 | 1.07 ± 0.012 | 1.08 ± 0.039 | 1.11 ± 0.087 | 1.11 ± 0.095 | 1.14 ± 0.14 | 1.06 ± 0.038
UniProt P46783 and related entries | 1.01 ± 0.12 | 0.992 ± 0.055 | 1.15 ± 0.19 | 1.11 ± 0.14 | 1.04 ± 0.19 | 0.999 ± 0.17 | 0.964 ± 0.16 | 1.04 ± 0.21
ETV6 (UniProt P41212) | 1.09 ± 0.057 | 1.16 ± 0.099 | 1.15 ± 0.12 | 1.13 ± 0.097 | 1.19 ± 0.1 | 1.12 ± 0.14 | 1.2 ± 0.14 | 1.12 ± 0.13
UniProt P49591 and related entries | 0.983 ± 0.039 | 0.961 ± 0.018 | 0.919 ± 0.015 | 0.893 ± 0.035 | 0.895 ± 0.035 | 0.859 ± 0.024 | 0.866 ± 0.011 | 0.846 ± 0.069
UniProt P41743 | 1.06 ± 0.17 | 1.04 ± 0.087 | 0.914 ± 0.077 | 0.924 ± 0.07 | 0.924 ± 0.13 | 0.948 ± 0.11 | 0.892 ± 0.12 | 0.902 ± 0.038
AK4 (UniProt P27144) | 0.983 ± 0.072 | 0.887 ± 0.088 | 1.03 ± 0.042 | 1 ± 0.075 | 1.03 ± 0.11 | 0.987 ± 0.11 | 0.975 ± 0.16 | 0.983 ± 0.11
SLC7A1 (UniProt P30825) | 1.16 ± 0.18 | 1.07 ± 0.085 | 1.06 ± 0.17 | 1.05 ± 0.11 | 1.09 ± 0.17 | 1.05 ± 0.2 | 0.995 ± 0.093 | 1 ± 0.12
UniProt P28749 and related entries | 1.01 ± 0.05 | 0.992 ± 0.017 | 1.04 ± 0.015 | 1.02 ± 0.045 | 1.022 ± 0.0058 | 1.03 ± 0.053 | 1.01 ± 0.034 | 1.02 ± 0.015
PIK3CG (UniProt P48736) | 1.13 ± 0.23 | 1.03 ± 0.17 | 1.02 ± 0.24 | 1.03 ± 0.12 | 1.07 ± 0.027 | 1.01 ± 0.092 | 0.963 ± 0.067 | 0.886 ± 0.05
UniProt P32780 and related entries | 1.01 ± 0.044 | 1.04 ± 0.066 | 1.05 ± 0.041 | 1.1 ± 0.055 | 1.12 ± 0.089 | 1.12 ± 0.099 | 1.14 ± 0.12 | 1.21 ± 0.095
UniProt P32189 and related entries | 0.999 ± 0.036 | 1.07 ± 0.024 | 0.971 ± 0.021 | 0.9088 ± 0.0085 | 0.9654 ± 0.0053 | 0.96 ± 0.045 | 0.833 ± 0.058 | 0.881 ± 0.029
UniProt P45983 and related entries | 0.996 ± 0.083 | 1 ± 0.043 | 0.987 ± 0.08 | 0.947 ± 0.059 | 0.907 ± 0.1 | 0.914 ± 0.1 | 0.964 ± 0.075 | 0.879 ± 0.064
SSR1 (UniProt P43307) | 0.815 ± 0.13 | 0.785 ± 0.11 | 0.854 ± 0.13 | 0.879 ± 0.11 | 0.91 ± 0.11 | 0.855 ± 0.11 | 0.836 ± 0.14 | 0.921 ± 0.13
UniProt P41223 | 1.04 ± 0.11 | 0.952 ± 0.072 | 1.02 ± 0.061 | 1.04 ± 0.11 | 1.09 ± 0.09 | 1.03 ± 0.078 | 0.976 ± 0.12 | 1.08 ± 0.14
UniProt P48739 and related entries | 1.01 ± 0.022 | 1.02 ± 0.04 | 0.924 ± 0.028 | 0.888 ± 0.035 | 0.881 ± 0.052 | 0.879 ± 0.027 | 0.87 ± 0.072 | 0.83 ± 0.07
UniProt P36954 | 1.05 ± 0.072 | 1.05 ± 0.036 | 1.2 ± 0.13 | 1.22 ± 0.077 | 1.23 ± 0.15 | 1.18 ± 0.12 | 1.24 ± 0.17 | 1.27 ± 0.18
GCLM (UniProt P48507) | 0.924 ± 0.058 | 0.909 ± 0.048 | 0.887 ± 0.057 | 0.876 ± 0.068 | 0.877 ± 0.085 | 0.871 ± 0.069 | 0.833 ± 0.096 | 0.831 ± 0.082
RPL27A (UniProt P46776) | 1.02 ± 0.095 | 0.993 ± 0.11 | 1.06 ± 0.13 | 1.06 ± 0.18 | 0.984 ± 0.17 | 0.907 ± 0.16 | 0.838 ± 0.19 | 0.984 ± 0.22
PHKA2 (UniProt P46019) | 1.05 ± 0.044 | 1.06 ± 0.048 | 1.08 ± 0.046 | 1.09 ± 0.067 | 1.11 ± 0.072 | 1.1 ± 0.074 | 1.15 ± 0.11 | 1.04 ± 0.12
UniProt P29218 and related entries | 1 ± 0.03 | 0.998 ± 0.017 | 0.925 ± 0.042 | 0.907 ± 0.05 | 0.89 ± 0.051 | 0.893 ± 0.066 | 0.909 ± 0.042 | 0.87 ± 0.069
UniProt P32322 and related entries | 0.991 ± 0.052 | 0.988 ± 0.034 | 1 ± 0.083 | 1.02 ± 0.081 | 1.01 ± 0.06 | 1.01 ± 0.1 | 1.03 ± 0.085 | 1.01 ± 0.093

Reprinted at random: two entries already listed, in no set order.
Target | NP40-soluble protein abundance (concentration: 0.1mM) | NP40-soluble protein abundance (concentration: 0.5mM) | NP40-soluble protein abundance (concentration: 1mM) | NP40-soluble protein abundance (concentration: 2mM) | NP40-soluble protein abundance (concentration: 4mM) | NP40-soluble protein abundance (concentration: 6mM) | NP40-soluble protein abundance (concentration: 8mM) | NP40-soluble protein abundance (concentration: 10mM)
SLC7A1 (UniProt P30825) | 1.16 ± 0.18 | 1.07 ± 0.085 | 1.06 ± 0.17 | 1.05 ± 0.11 | 1.09 ± 0.17 | 1.05 ± 0.2 | 0.995 ± 0.093 | 1 ± 0.12
AK4 (UniProt P27144) | 0.983 ± 0.072 | 0.887 ± 0.088 | 1.03 ± 0.042 | 1 ± 0.075 | 1.03 ± 0.11 | 0.987 ± 0.11 | 0.975 ± 0.16 | 0.983 ± 0.11
